Measured values: PubChem BioAssay AID504648 (National Center for Advancing Translational Sciences (NCATS), 2011)
Out of some 390,000 compounds screened, about 610 (0.16%) were called active. The inconclusive results got no clear call from the source; some entries with a clear call stand among them for comparison. The call rests on the fitted dose curve; in most records, active means well fitted inhibition curve with a large enough effect; inconclusive means small, poorly fitted or top-dose-only effect, or effect the other way, or another doubt; inactive means no such curve, though single readings can be large or run the other way. A potency beside an inconclusive call is a rough fit, not a confirmed value.

Assay: Nrf2 qHTS screen for inhibitors: counterscreen for cytotoxicity
Conditions: A549 ARE-Fluc cells, CellTiter-Fluor viability, 18-24 h; series mostly up to 46 µM
Outline: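 Cytotoxicity counterscreen: CellTiter-Fluor fluorescence was measured in A549 ARE_Fluc cells after 18-24 h of compound exposure in a concentration series. The subsequent BugLite luminescent read reports ARE-luciferase activity.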
Potency means the concentration at half of the fitted maximal effect.

Compound | Potency
O=C(Nc1nnc(-c2ccco2)o1)c1ccc2ccccc2c1 | inactive
O=C(COc1ccccc1)n1nc(-c2ccc(Cl)cc2)nc1NCc1ccco1 | inconclusive: 23.1 µM [falling, single point]
O=C(Nc1sc2c(c1C(=O)O)CCC2)c1ccc(F)cc1 | inconclusive: 29.1 µM [falling, partial curve, poor fit]
O=C(O)C1Nc2c(C(=O)N3CCOCC3)cccc2C2C=CCC12 (centres undefined) | inconclusive: 23.1 µM [falling, partial curve, poor fit]
COC(=O)c1ccc(C(=O)NC2CCCc3c2cnn3-c2ccc(C)c(C)c2)cc1 (centres undefined) | inconclusive: 5.17 µM [falling, partial curve, poor fit]
O=[N+]([O-])c1ccc2nc(-[n+]3c(-c4ccccc4)cc(-c4ccccc4)cc3-c3ccccc3)[nH]c2c1 | inconclusive: 29.1 µM [falling, single point]
O=C(O)CN(c1ccccn1)S(=O)(=O)c1ccccc1 | inactive
COCCCn1c(=N)c(C(=O)NCC2CCCO2)cc2c(=O)n3cc(C)ccc3nc21 (centres undefined) | inconclusive: 13 µM [activator, partial curve]
CC1CC(C)CN(C(=O)CSc2ncnc3sccc23)C1 (centres undefined) | inactive
O=c1oc2c(O)cccc2cc1-c1nc2ccccc2[nH]1 | inconclusive: 6.51 µM [activator, full curve]
COc1ccc(/C=N\NC(=O)c2ccccc2F)cc1COc1ccc(F)cc1 | inactive
COc1cccc(-c2cn3c(n2)sc2cc(C(=O)NCCCc4ccccc4)ccc23)c1 | inactive
N#C/C(=C\c1c(N2CCCCCC2)nc2ccccn2c1=O)C(=O)NCc1ccco1 | inconclusive: 6.51 µM [falling, partial curve, poor fit]
O=C1CC(c2cccs2)Cc2nc(NCC3CCCO3)ncc21 (centres undefined) | inconclusive: 32.6 µM [activator, single point]
CC(NC(=O)CCCn1cc([N+](=O)[O-])cn1)c1ccccc1 (centres undefined) | inactive
Cc1ccc(-c2nn(C)c(=O)c3ccccc23)cc1CNC(=O)/C=C/c1ccccc1 | inactive
CCOC(=O)c1cc(C)n(CC2CCC(C(=O)Nc3ccc(C(C)=O)cc3)CC2)c1C (centres undefined) | inactive
CCc1ccc2[nH]c3nc(SCCN4CCOCC4)nnc3c2c1 | inconclusive: 32.6 µM [falling, partial curve, poor fit]
N#Cc1c(N2CCCC(O)C2)nc(N)c2c(N)nc3c(c12)CC(=O)N3C12CC3CC(CC(C3)C1)C2 (centres undefined) | inconclusive: 18.4 µM [falling, partial curve, poor fit]
CCOC(=O)C1=C(C)NC(C)=C(C(=O)OCC)C1C(=O)OCC(=O)N1CCCCC1CC (centres undefined) | inconclusive: 29.1 µM [falling, single point]
CN(C)/C=C1\SC(=S)N(c2ccc(F)cc2)C1=O | inconclusive: 23.1 µM [falling, partial curve]
O=C(C1=C[C@H](c2ccc(C(F)(F)F)cc2)C[C@H](OCCCCO)O1)N1CCN(Cc2ccccc2)CC1 | inconclusive: 23.1 µM [falling, partial curve, poor fit]

Part of the list above in order of count of non-hydrogen atoms, largest number first:
Compound | Potency
N#Cc1c(N2CCCC(O)C2)nc(N)c2c(N)nc3c(c12)CC(=O)N3C12CC3CC(CC(C3)C1)C2 (centres undefined) | inconclusive: 18.4 µM [falling, partial curve, poor fit]
COCCCn1c(=N)c(C(=O)NCC2CCCO2)cc2c(=O)n3cc(C)ccc3nc21 (centres undefined) | inconclusive: 13 µM [activator, partial curve]
O=C(Nc1nnc(-c2ccco2)o1)c1ccc2ccccc2c1 | inactive

Going on with the list.

Compound | Potency
Cc1ccsc1/C=C/C1=Cc2c(sc(NC(=O)CSc3n[nH]c(N)n3)c2C#N)C(C)(C)C1 | inconclusive: 16.4 µM [falling, single point]
Cc1cccc(/C=N/n2c(C3CCCCC3)n[nH]c2=S)c1 | inactive
Cc1sc(NC(=O)COc2cccc(-n3cnnn3)c2)c(C#N)c1C | inconclusive: 20.6 µM [falling, single point]
Cc1cc(N2CCOCC2)n2nc(C)c(-c3ccccc3Cl)c2n1 | inconclusive: 29.1 µM [falling, single point]
O=c1oc2ccccc2cc1-c1cn(-c2ccccc2)c(=S)[nH]1 | inconclusive: 18.4 µM [falling, partial curve, poor fit]
Cc1ccc(OCCCCn2nnc3sc4c(c3c2=O)CCCC4)cc1 | inactive
Cc1noc(C)c1CSc1nc2sc3c(c2c(=O)n1C)CCCC3 | inconclusive: 5.17 µM [falling, partial curve, poor fit]
CCCCNc1c(-c2ccc(OC)c(SC3CCCCC3)c2)nc2cc(C)ccn12 | inconclusive: 18.4 µM [falling, single point]
COc1cc(/C=C2\CC/C(=C\c3cc(OC)c(O)c(OC)c3)C2=O)cc(OC)c1O | inconclusive: 23.1 µM [falling, single point]
CCOC(=O)C1CCN(C(=O)COc2ccc(N(C)S(=O)(=O)c3ccc(C)cc3)cc2)CC1 | inactive
CC1=CC(=C2C(=O)c3ccccc3C2=O)C=C(C)N1C | inconclusive: 29.1 µM [falling, single point]
COc1ccc2nc(NCc3ccccc3)[nH]c2c1 | inconclusive: 3.26 µM [activator, single point]
CCOc1c(C)cc(-c2ncccc2O)cc1C | inconclusive: 6.51 µM [falling, single point]
CCCC(O)c1nc2ccccc2n1Cc1ccccc1OC (centres undefined) | inactive
CCS(=O)(=O)c1nn2c(N)c(/C=C3/C=CC(=O)C(OC)=C3)c(=O)nc2s1 | inconclusive: 20.6 µM [falling, partial curve, poor fit]
COc1cc(NC(=O)CN2c3ccccc3S(=O)(=O)c3ccccc32)cc(OC)c1 | inactive
O=C(NNc1ccccc1F)c1sccc1Cl | inactive
OC(CN=c1sc2ccccc2n1CC(O)COc1ccccc1)COc1ccccc1 (centres undefined) | inconclusive: 25.9 µM [falling, single point]
COCCN1CCN(C(=O)c2cc(COc3ccc(F)cc3F)on2)CC1 | inactive
Cn1c(=O)c2c(SCC(=O)Nc3ccccc3C(F)(F)F)nc(C3CCCC3)nc2n(C)c1=O | inactive
NC1=NC(=O)/C(=C/c2cn(Cc3ccccc3)c3ccccc23)S1 | inconclusive: 11.6 µM [falling, partial curve, poor fit]
O=C(O)Cn1cc(/C=C2/NC(=O)N(c3ccc(Cl)cc3)C2=O)c2ccccc21 | inconclusive: 11.6 µM [falling, partial curve, poor fit]
